Primary screen of a compound library

The values are deposited in ChEMBL (CHEMBL3988442, “University of Dundee, Small-Polar-MMV Screening Library” (2021)).

The filed quantity is “Percent Effect” (%). The record does not define 0% and 100%; most values in the screen are far below 50% and negative numbers occur (in some assays of this library far below -100). This is an unselected part of the compounds tested. Two or more numbers in one place are separate tests of the same structure; such repeats can differ widely.

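Phenotypic screen: M. tuberculosis growth, cholesterol and DPPC medium, 4 days; the read-out is not stated. Tested at 50 µM. The record gives no direction; compounds that gave an IC50 in retests scored well above the rest, so higher reads as more growth inhibition. About 69,000 compounds were tested under these conditions; 0.54% (about 370) showed 50% or more at least once.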

| # | compound | percent effect |
|---|---|---|
| 1 | `O=C(O)Cc1cccc(-n2ccnc2-c2ccc(F)c(Cl)c2)c1` | 9.375% |
| 2 | `CN1CCN(S(=O)(=O)c2cccc(F)c2)c2ccccc21` | 12.48% |
| 3 | `Cc1nc[nH]c1-c1nccn1CCN1CCOC1=O` | 1.101% |
| 4 | `O=C(CN1CCCC1c1noc(C2CC2)n1)NCCc1ccsc1` (stereo unspecified) | -12.79% |
| 5 | `COc1cccc(OCC2CCCN(C(=O)c3ncoc3C3CC3)C2)c1` (stereo unspecified) | 5.872% |
| 6 | `Cl.Cn1cc([C@@H]2CN(S(=O)(=O)c3cccnc3)C[C@H]2N)c2ccncc21` | -3.78% and -10.65% |
| 7 | `CCOCCN1CCN(Cc2csc(-c3cnn(C)c3)n2)CC1` | 14.98% |
| 8 | `Cc1nn(C)c(Cl)c1S(=O)(=O)N(CC(N)=O)CC(C)C` | 13.57% |
| 9 | `CNc1ccnc(N2CC[C@@](O)(C3CCOCC3)[C@H](C)C2)n1` | 17.77% |
| 10 | `O=C(c1cnc(Nc2ccccc2)nc1)N1CCC(O)(CO)CC1` | -6.204% and 13.28% |
| 11 | `CC(=O)N1CCCC1c1nnc2n1CCCCC2` (stereo unspecified) | 51.62% and 0.6994% |
| 12 | `OC(CNCCn1cccn1)COc1ccc2ccccc2c1` (stereo unspecified) | 30.19% |
| 13 | `[H][C@@]12C[C@H](C(=O)NCC3CC3)[C@@]([H])(CN(S(=O)(=O)Cc3ccccc3)C1)O2` | -32.13% |
| 14 | `COCCNc1nnc(-c2ccccn2)s1` | -8.82% |
| 15 | `COCCN1CCCC2(CCN(Cc3nnc(C4CC4)o3)C2)C1=O` (stereo unspecified) | -8.906% |
| 16 | `COC1CCN(CCNC(=O)C2CCCCC2)CC1` | -8.886% |
| 17 | `COCCN(Cc1ccoc1)C(=O)CSc1ccc(F)cc1` | -0.6994% |
| 18 | `CCC[C@@H]1CN(Cc2ccc(C(F)(F)F)nc2)C[C@H]1NS(C)(=O)=O` | -21.97% |
| 19 | `Cc1cnn(C2CN(C(C)c3nc(-c4ccccc4)no3)C2)c1` (stereo unspecified) | 14.34% |
| 20 | `COc1cc(C2CC(=O)Oc3cc(C)[nH]c(=O)c32)ccc1OCC(=O)O` (stereo unspecified) | -4.481% |
| 21 | `Cc1ccc(N2CCCN(C(=O)c3cc(Cl)c[nH]3)CC2)nn1` | -6.941% |
| 22 | `CCc1csc(C2CCCN(C(=O)c3ncccn3)C2)n1` (stereo unspecified) | 6.923% |
| 23 | `Cc1ccc(CN2CCn3c(COc4cccnc4)cnc3C2C)o1.O=C(O)C(F)(F)F.O=C(O)C(F)(F)F` (stereo unspecified) | -21.89% |
| 24 | `O=C(O)C(F)(F)F.O=C(c1ccoc1)N1CCCC2(CCC(=O)N2Cc2ccncc2)C1` (stereo unspecified) | 20.8% |
| 25 | `CN1CCCn2c(nc(CNC(=O)c3ccsc3)cc2=O)C1.O=C(O)C(F)(F)F` | -17.03% |
| 26 | `CC(=O)Nc1ccc(/C=C/c2ncc(C(=O)O)s2)cc1` | -6.63% |
| 27 | `CCNc1ncc(C)c(-c2cnn(C)c2)n1` | 4.062% |
| 28 | `Cc1cccnc1NC(=O)C1CCCN1Cc1ccccc1` (stereo unspecified) | -33.19% |
| 29 | `CNC(=O)c1cnc(/C=C/c2cc(OC)c(O)c(OC)c2)s1` | -40.95% |
| 30 | `[H][C@@]12CCN(c3ccc(C)nn3)C[C@]1(C(=O)N1CCCO1)CCO2` | 6.778% |
| 31 | `O=C(NCc1nncn1C1CCCCC1)C1CNCCO1` (stereo unspecified) | 7.624% |
| 32 | `CC(C)(C)NC(=O)CN1CCCN(Cc2cc(C#N)ccc2F)CC1` | -11.73% and -9.263% |
| 33 | `CC(=O)c1cccc(NC(=O)CCn2nc(-c3cccs3)oc2=O)c1` | 8.005% |
| 34 | `[H][C@@]12CCCO[C@]1([H])[C@H](NS(C)(=O)=O)CN(C(=O)c1ccccn1)C2` | -12.45% |
| 35 | `[H][C@@]12CCN(C(C)=O)C[C@@]1([H])[C@H](C(=O)Nc1cccnc1C)CCO2` | 6.4% |
| 36 | `Cc1ccc(-c2cc(CNCCn3cc(C)cn3)on2)cc1` | 24.43% |
| 37 | `O=C(NCc1ccncc1)N1CC(Cc2ccccc2F)C1` | -17.57% |
| 38 | `CCS(=O)(=O)CCN(CC1CCCO1)C1CCCC1` (stereo unspecified) | -0.4633% |
| 39 | `Cc1cccc(C(Nc2nccc(C)n2)C2CC2)n1` (stereo unspecified) | 22.05% |
| 40 | `Cn1ccnc1CN1CCN(CCOc2ccccc2F)CC1` | 1.254% |
| 41 | `CCc1cnc(NCCSc2cnn[nH]2)nc1` | 22.67% and -20.23% |
| 42 | `CCc1nnsc1C(=O)N1CCOC(c2nc(C(C)C)n[nH]2)C1` (stereo unspecified) | -2.564% |
| 43 | `[H][C@]12CN(Cc3ccccc3CC)CC[C@@]1(O)CCN(S(=O)(=O)N(C)C)C2` | -9.776% |
| 44 | `O=C(NCCCn1cccn1)c1csc2c1CCCC2` | -1.577% |
| 45 | `O=C(c1ccccc1F)N1CCCC1Cn1c(=O)oc2ccccc21` (stereo unspecified) | 3.794% and 4.376% |
| 46 | `CCC(=O)Nc1nnc(CCOc2ccccc2)s1` | 1.72% |
| 47 | `CS(=O)(=O)N1CC(c2nc[nH]n2)c2cc(C(=O)NC3CC3)ccc21` (stereo unspecified) | -14.03% |
| 48 | `[H][C@@]12COC[C@]1(CNS(C)(=O)=O)CN(C(=O)c1occc1C)C2` | -12.77% and -11.65% |
| 49 | `Cc1nc(N2CCCC2)nc2c1CCN(C(=O)C1CCC1)CC2` | -10.64% |
| 50 | `Cc1ccc(S(=O)(=O)Nc2ccc(=O)n(C)c2)cc1` | -3.145% |
| 51 | `COc1cc(CNC(=O)Nc2nnc(C(F)(F)F)s2)ccc1O` | 4.813% |
| 52 | `CCN1CC2(CC1=O)CN(C(=O)NC)CCN(S(C)(=O)=O)C2` (stereo unspecified) | -3.685% |
| 53 | `COCCC(=O)NCc1ccc(-c2ccccc2C(=O)O)cn1` | 19.88% and 2.715% |
| 54 | `O[C@@H]1CN(c2nc3ccccc3s2)CC[C@H]1c1ccc2c(c1)OCO2` | 27.13% |
| 55 | `CC(=O)N1C[C@H](NS(=O)(=O)Cc2cccc(Cl)c2)[C@@H](C(C)C)C1` | 24.47% |
| 56 | `CN(C)CCN(Cc1ccco1)C(=O)Cc1cn2ccsc2n1` | -3.76% |
| 57 | `CC(C)Oc1ccc(C(=O)NCc2ccc3c(c2)CCCN3C)cn1` | 3.537% |
| 58 | `COCCN1CCC(NCc2c(F)cccc2F)C1` (stereo unspecified) | -7.95% |
| 59 | `Cc1ccc(F)cc1S(=O)(=O)Nc1cnc(N2CCCC2)nc1` | 6.526% |
| 60 | `CN(Cc1ccc(C#N)cc1)C(=O)c1ccnc(OC2CCC2)c1` | 1.765% |
| 61 | `Cc1cccc(CN2CCC(c3nnsc3S(C)(=O)=O)CC2)c1` | 16.63% |
| 62 | `Cc1cc(C(=O)N2CCN(c3nc4ccccc4s3)CC2)no1` | -36.3% |
| 63 | `O=C(O)C(F)(F)F.[H][C@]12CCN(c3ncccn3)[C@@]1([H])CC[C@@H](COCc1csc(C)n1)O2` | -2.271% |
| 64 | `O=C(c1ccc(Sc2ccccn2)cc1)N1CCCSCC1` | -14.14% |
| 65 | `Cc1ccc(N2CCCC(NCC(=O)NC(C3CC3)C3CC3)C2)nn1` (stereo unspecified) | 1.477% |
| 66 | `O=C(NCC1CCN(c2ccncc2)CC1)C(O)c1ccccc1` (stereo unspecified) | 0.7627% |
| 67 | `COc1ccc(CN2CCOC[C@H](OCc3ccccc3)C2)cc1` | -7.517% |
| 68 | `COc1ccc2c(C)nc(N3CCN([C@H]4CCCC[C@@H]4O)CC3)nc2c1` | -30.77% |
| 69 | `COc1nc2c(cc1C(=O)NCCc1nc3c(s1)CCC3)CCC2` | -15.6% |
| 70 | `O=C(NCc1cccs1)NCC1(O)CCc2ccccc2C1` (stereo unspecified) | 15.7% |
| 71 | `Cc1cccc(-c2nc(CN3CCCCC3Cn3cncn3)no2)c1` (stereo unspecified) | 1.242% |
| 72 | `O=C(NC(Cc1ccsc1)c1nccs1)C1CC1` (stereo unspecified) | -1.094% |
| 73 | `CCc1c(C)nc(-n2nc(-c3cccs3)cc2N)[nH]c1=O` | 28.33% |
| 74 | `Cc1ccc(CNC(=O)CN2CCOC(Cn3cccn3)C2)s1` (stereo unspecified) | -2.134% |
| 75 | `CCc1cnc(N)nc1NCCCn1nc(C)nc1C` | -4.075% and 18.01% |
| 76 | `Nc1ncc(C(=O)N2CCC3(CCCO3)CC2)c(-c2ccccc2)n1` | 2.895% |
| 77 | `CCCN1CCC(CC(=O)NCc2cc(O)ncn2)CC1` | 1.026% |
| 78 | `CCC(=O)N1CCCC(C(=O)NCc2noc(Cc3ccccc3)n2)C1` (stereo unspecified) | 5.211% |
| 79 | `COc1ccc(S(=O)(=O)NCCCc2nnc3nc(C)cc(C)n23)cc1` | -1.106% |
| 80 | `Cc1cccc(CC(=O)Nc2cnn(C3CCOC3)c2)c1` (stereo unspecified) | 13.86% |
| 81 | `CC(=O)N(Cc1ncc(C(C)C)o1)C1CCN(Cc2cc(C)no2)C1` (stereo unspecified) | -12.3% |
| 82 | `COCC(=O)N1CCC2(CCCN(Cc3ccc(Cl)cc3)CC2)CC1` | 1.083% |
| 83 | `Cc1nc(N)ncc1C(=O)N1CCCC1(C)C(=O)N(C)C` (stereo unspecified) | 0.6453% |
| 84 | `O=C(O)C(F)(F)F.[H][C@]12CC[C@@]3(N=C(C)N(CC4CC4)C3=O)[C@@]1([H])CN(Cc1ccccc1)C2` | 4.138% and -7.188% |
| 85 | `CCc1nc(N)nc(N2CCCC3(CCN(C)CC3)CC2)c1C` | -3.256% |
| 86 | `CC(C)(C)c1cn2c(n1)C(CNCc1cnn3ccccc13)CCC2` (stereo unspecified) | 10.55% |
| 87 | `O[C@@H]1CN(Cc2ccncc2)C[C@H]1Oc1ccccc1` | 10.94% |
| 88 | `C1CCC(N2CCCN(c3nc(C4CC4)no3)CC2)C1` | 20.58% |

The first 9 entries again:

compound,percent effect
O=C(O)Cc1cccc(-n2ccnc2-c2ccc(F)c(Cl)c2)c1,9.375%
CN1CCN(S(=O)(=O)c2cccc(F)c2)c2ccccc21,12.48%
Cc1nc[nH]c1-c1nccn1CCN1CCOC1=O,1.101%
O=C(CN1CCCC1c1noc(C2CC2)n1)NCCc1ccsc1 (stereo unspecified),-12.79%
COc1cccc(OCC2CCCN(C(=O)c3ncoc3C3CC3)C2)c1 (stereo unspecified),5.872%
Cl.Cn1cc([C@@H]2CN(S(=O)(=O)c3cccnc3)C[C@H]2N)c2ccncc21,-3.78% and -10.65%
CCOCCN1CCN(Cc2csc(-c3cnn(C)c3)n2)CC1,14.98%
Cc1nn(C)c(Cl)c1S(=O)(=O)N(CC(N)=O)CC(C)C,13.57%
CNc1ccnc(N2CC[C@@](O)(C3CCOCC3)[C@H](C)C2)n1,17.77%